According to PubChem BioAssay AID504834 (National Center for Advancing Translational Sciences (NCATS), 2011):
The whole screen tested about 320,000 compounds, of which about 22,000 (6.9%) were called active. Inconclusive means that the source gave no clear call. Such entries were picked first, then a sample of the others. Calls follow the shape of the dose curve; as a rule, active = well fitted inhibition curve with a large enough effect; inconclusive = small, poorly fitted or top-dose-only effect, or another doubt; inactive = no such curve, though single readings can be large or run the other way. Potencies of inconclusive entries are doubtful fits and often do not repeat.

Test: Primary qHTS for delayed death inhibitors of the malarial parasite plastid, 96 hour incubation
Details: P. falciparum luciferase reporter growth; series mostly up to 28.7 µM
Method in brief: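 Readout is luminescence from an integrated firefly luciferase in P. falciparum. Red cells, 2% hematocrit and 0.05% parasitemia final, were cultured with compound through two parasite generations (96 hours) at 37 C, 5% CO2.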
Potency is read from the fitted curve at half-maximal effect.

Structure (SMILES)	Potency
O=C(/C=C/c1cccs1)c1cc(Br)ccc1OC(=O)N1CCOCC1	inconclusive: 20.8 µM [inhibitor, partial curve, poor fit]
COC(=O)C1=C(C)N(Cc2ccccc2)C(=S)N[C@H]1c1ccccc1	inconclusive: 5.22 µM [inhibitor, partial curve, poor fit]
CCCCC(=O)Nc1ccc(NC(=O)c2ccc([N+](=O)[O-])cc2)cc1OC	inconclusive: 11.7 µM [inhibitor, single point]
COc1cccc(-c2c(C(=O)N/N=C/c3ccoc3)nnn2-c2nonc2N)c1	inconclusive: 18.5 µM [inhibitor, single point]
COc1ccc(-c2cc(-c3ccccc3)nc3ncnn23)cc1	inconclusive: 1.65 µM [inhibitor, single point]
Cc1cc(CN(C)C(=O)c2cc(COc3ccc(C)c(C)c3)on2)n[nH]1	inconclusive: 11.7 µM [inhibitor, single point]
O=C(O)/C(CC(=O)c1ccc(Cl)cc1)=N/Nc1ccc([N+](=O)[O-])cc1[N+](=O)[O-]	inconclusive: 18.5 µM [inhibitor, single point]
Cc1ccc(-c2csc3ncnc(Nc4ccc(C(=O)O)cc4)c23)cc1	inconclusive: 20.8 µM [inhibitor, partial curve, poor fit]
O=C(NCc1ccccc1F)C1CCN(S(=O)(=O)c2ccccc2)CC1	inactive
COc1ccccc1NC(=O)CC(c1ccc(OC(C)C)cc1)c1ccccc1OC (centres undefined)	inconclusive: 10.4 µM [inhibitor, single point]
COc1ccccc1C(=O)NN=C1CCN(Cc2ccccc2)CC1	inactive
CCC(C(=O)Nc1ccc(C(=O)Nc2ccccc2C(=O)O)cc1)c1ccccc1 (centres undefined)	inconclusive: 2.62 µM [inhibitor, partial curve, poor fit]
COc1ccc(CCNC(=O)c2coc(=O)c(Br)c2)cc1	inactive
Cc1cc(C)n(S(=O)(=O)c2ccc(Cl)cc2)n1	inconclusive: 18.5 µM [inhibitor, single point]
CC(=O)c1cccc(NC(=O)NC2CCCCCCC2)c1	inconclusive: 18.5 µM [inhibitor, single point]
NS(=O)(=O)c1cccnc1Nc1cccc(Cl)c1Cl	inactive
OC1(c2ccc(Cl)c(Cl)c2)C[n+]2ccccc2N1Cc1ccccc1 (centres undefined)	inconclusive: 18.5 µM [inhibitor, single point]
CCOc1ccc(N2C(=O)C(CC(=O)Nc3ccccc3)N(Cc3ccccn3)C2=S)cc1 (centres undefined)	active: 9.28 µM
Cc1cc(Cl)c(S(=O)(=O)Nc2cccc(O)c2)cc1OCC(N)=O	inactive
COc1ccc(CC(=O)N(Cc2ccccc2)c2ccccc2)cc1S(=O)(=O)N1CCOCC1	inconclusive: 2.62 µM [inhibitor, full curve, poor fit]
Cc1ccc(OCc2nc(C#N)c(N3CCCCC3)o2)cc1	inactive
CC(=O)Nc1cc(C(=O)N2CCCC2)ccc1Sc1ccc(C)cc1	inconclusive: 18.5 µM [inhibitor, partial curve, poor fit]
CCn1c(CNC(=O)c2cccs2)nnc1SCC(=O)Nc1cc(Cl)ccc1C	inconclusive: 0.131 µM [inhibitor, full curve, poor fit]
COc1ccc(S(=O)(=O)c2cnc3ccccc3n2)cc1	active: 13.1 µM
N#Cc1ccc(CSc2nc(N)cc(=O)[nH]2)cc1	inactive

Among those listed so far, these have an NH in an aromatic ring.
Structure (SMILES)	Potency
Cc1cc(CN(C)C(=O)c2cc(COc3ccc(C)c(C)c3)on2)n[nH]1	inconclusive: 11.7 µM [inhibitor, single point]
N#Cc1ccc(CSc2nc(N)cc(=O)[nH]2)cc1	inactive

The list goes on.

Structure (SMILES)	Potency
CCn1c(Oc2cccc(Br)c2)nc2c1c(=O)n(C)c(=O)n2C	inconclusive: 13.1 µM [inhibitor, single point]
COc1ccc(NCCC(O)c2ccc(Cl)cc2)cc1 (centres undefined)	inactive
COc1cccc(C2C=C(c3ccc(Br)s3)Nc3ncnn32)c1OC (centres undefined)	active: 2.33 µM
CSc1ncccc1C(=O)Nc1ccc2c(c1)OCO2	inactive
CCOC(=O)C1CCCN(C(=O)CCc2nnc(-c3ccc(C(C)=O)s3)o2)C1 (centres undefined)	inactive
O=C(Nc1cccc(-c2ccc(F)cc2)c1)C1CCCN(C(=O)c2cscn2)C1 (centres undefined)	inactive
COc1ccc(NC(=O)COC(=O)Cn2cnc3ccccc3c2=O)c(OC)c1	inactive
C/C(=N\NC(=O)c1sccc1C)c1cccnc1	inactive
CCN1CCc2c(sc(NC(=O)c3ccc(S(=O)(=O)N4CCCCCC4)cc3)c2C(=O)NC)C1	inconclusive: 13.1 µM [inhibitor, partial curve]
CCn1cc(SCC(=O)NCC2CCCO2)c2ccccc21 (centres undefined)	inactive
CCc1noc(C)c1C(=O)N(CCOC)c1c(N)n(CC(C)C)c(=O)[nH]c1=O	inactive
Cn1cccc1CNCc1ccccc1Cl	inconclusive: 0.586 µM [inhibitor, full curve, poor fit]
CCOc1ccc(C(=O)COC(=O)c2nn(CC)c(=O)c3ccccc23)cc1	inactive
COc1ccc(N2CC(NS(=O)(=O)c3cccs3)CC2=O)cc1OC (centres undefined)	inactive
Nc1nc(N)c2sc3nc(C(F)(F)F)cc(C(F)(F)F)c3c2n1	inconclusive: 16.5 µM [inhibitor, single point]
CCOc1ccc(-c2cn(-c3ccccc3OC)c(=S)[nH]2)cc1	inactive
CN(C)c1nc(N)nc(CSc2nnnn2C)n1	inconclusive: 11.7 µM [inhibitor, partial curve, poor fit]
COc1ccc(NC(=O)Nc2c(C)n(C)n(-c3ccccc3)c2=O)c(OC)c1	inactive
Cc1ccc(SCCCCN2CCNCC2)cc1	inactive
O=C(COc1ccc(S(=O)(=O)N2CCCC2)cc1)NCc1ccco1	inactive
CC(C)C(=O)Nc1sc2c(c1-c1nc3ccccc3[nH]1)CCCC2	inconclusive: 10.4 µM [inhibitor, single point]
Cc1c(C(=O)N2CCC3(CC2)OCCO3)sc2ncnc(N(C)c3ccccc3)c12	inconclusive: 5.22 µM [inhibitor, partial curve, poor fit]
CC1CN(C(=O)CCC(=O)NCc2ccccc2Cl)c2ccccc2S1 (centres undefined)	active: 8.28 µM
O=C(Nc1ccc(Oc2ccc(Br)cc2)cc1)C1=CC=CN2CCS(=O)(=O)N=C12	inconclusive: 1.17 µM [inhibitor, partial curve, poor fit]
